Results reported in PubChem BioAssay AID2685 (National Center for Advancing Translational Sciences (NCATS), 2010).
The list shows a part of the results. Shown are side measurements of this screen, not its main read-out; they come without a call. The list favours compounds with an active or inconclusive main result. Potencies come from curve fits of mixed quality, noted in brackets.

Assay: qHTS Assay for Lipid Storage Modulators in Drosophila S3 Cells;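 for cell number change: cells counted by Cell Tracker Red CMTPX staining in the red channel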
Details: BODIPY lipid droplet fluorescence, 18-24 h; for cell number change: measured here: cell count max response, cells fed with added oleic acid
How it was run: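 Laser-scanning cytometry quantifies lipid droplet accumulation (500–530 nm total intensity; droplet/cell object ratio) in oleic acid-fed (400 uM added) Drosophila S3 cells treated with a concentration series. 20 uM Triacsin C defined 100% inhibition.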

[1] = measured here: lipid fluorescence (Fed channel) AC50, cells fed with added oleic acid
[2] = measured here: cell number channel AC50, cells fed with added oleic acid

| Compound | cell number change | AC50 [1] | AC50 [2] |
| --- | --- | --- | --- |
| CC1CCN(c2nc3c(c(=O)n(C)c(=O)n3C)n2CCSc2nc3ccccc3s2)CC1 | -19.9% | 0.206 µM [falling, full curve, poor fit] | – |
| Cc1ccc(N2C(=O)c3ccccc3C2=O)cc1 | -6.52% | 0.731 µM [falling, full curve, poor fit] | – |
| CCn1nc(C(=O)Nc2ccccc2N2CCCC2)c2ccccc2c1=O | 9.24% | – | – |
| COC(=O)CSc1nnc(-c2ccc(S(=O)(=O)NCc3cccs3)cc2)o1 | – | 0.92 µM [falling, full curve] | 0.82 µM [falling, full curve] |
| CCSc1nnc(-c2cccnc2)n1-c1ccc(C)c(Cl)c1 | – | 0.92 µM [rising, full curve, poor fit] | 0.58 µM [falling, single point] |
| COc1ccc(N2CCN(Cc3nnc(-c4ccccc4)o3)CC2)cc1 | 0.603% | 25.9 µM [rising, single point] | – |
| COc1cccc(/C=N/NC(=O)c2ccccc2)c1OS(=O)(=O)c1ccccc1 | -2.84% | – | 2.31 µM [falling, partial curve, poor fit] |
| COc1ccccc1CNC(=S)NCc1ccc(F)cc1 | 10.8% | 0.794 µM [falling, partial curve] | – |
| O=C(c1ccco1)N1CCN(C(=S)Nc2ccc(Br)cc2Cl)CC1 | -15.6% | – | – |
| Cc1ccccc1Cn1nc(C)c(NC(=O)c2cc(-c3cccs3)on2)c1C | -4.44% | 0.184 µM [rising, full curve, poor fit] | – |
| O=C(NNC(=S)Nc1ccc(Cl)cc1)c1cccs1 | -27.1% | 32.6 µM [falling, partial curve, poor fit] | – |
| CCN1CCN(CCNC(=O)c2ccc(/C=C3/Sc4ccccc4N(Cc4ccccc4C)C3=O)cc2)CC1 | -56.5% | 18.4 µM [falling, partial curve] | 16.4 µM [falling, partial curve] |
| CCN(CC)c1cccc(OC(=O)c2cccnc2Cl)c1 | – | 29.1 µM [rising, single point] | – |
| COc1ccc(S(=O)(=O)N2CCC(C(=O)NC(c3nc4ccccc4[nH]3)C(C)C)CC2)cc1 (stereo unspecified) | -29.8% | – | – |
| O=C(N/N=C/c1cc([N+](=O)[O-])ccc1O)c1ccc(COc2ccc3c(c2)CCC3)o1 | -46.3% | – | 29.1 µM [falling, single point] |
| COc1cc(OC)c2ccc(=O)oc2c1C(CC(=O)N1CCCC1)c1ccc2c(c1)OCO2 (stereo unspecified) | 17.5% | 0.411 µM [rising, full curve, poor fit] | – |
| CCCN(CCC)S(=O)(=O)c1ccc(C(=O)Nc2nc3c(s2)CCc2ccccc2-3)cc1 | -55.5% | 25.9 µM [falling, partial curve, poor fit] | 18.4 µM [falling, partial curve, poor fit] |
| COC(=O)c1cccc(COC(=O)c2ccccc2NC(=O)c2ccco2)c1 | -5.47% | – | – |
| Cc1c(Cc2ccccc2)c(=O)oc2c(C)c(OCC(=O)NCC3CCC(C(=O)O)CC3)ccc12 (stereo unspecified) | 14.2% | – | – |
| Cc1cccc(C(=O)N2CCC(=O)N(C(COCc3cccc(C(F)(F)F)c3)Cc3ccccc3)CC2)c1 (stereo unspecified) | 4.3% | 2.91 µM [falling, partial curve] | – |

| Compound | cell number change | AC50 [1] | AC50 [2] |
| --- | --- | --- | --- |
| CCNc1sc(C(=O)c2cccs2)c(N)c1-c1nc2ccccc2s1 | -56.1% | 29.1 µM [falling, single point] | 29.1 µM [falling, single point] |
| O=C(Nc1nc2ccsc2c(=O)s1)c1ccc(F)cc1Cl | -18.7% | – | – |
| O=C(Nc1cccnc1)c1cc(S(=O)(=O)N2CCOCC2)ccc1Br | 17.3% | 17.8 µM [rising, partial curve] | – |
| CC(=O)c1cccc(NC(=O)C2C3C=CC(C3=C(c3ccccc3)c3ccccc3)C2C(=O)O)c1 (stereo unspecified) | – | 0.13 µM [rising, full curve, poor fit] | 0.058 µM [rising, full curve, poor fit] |
| O=S(=O)(c1ccc2ccccc2c1)N1CCCCC1 | – | 0.13 µM [falling, full curve] | – |
| O=C(Oc1cccc2c(O)cccc12)c1ccccc1 | -64.3% | 29.1 µM [falling, single point] | 25.9 µM [falling, single point] |
| Cc1ccc(C(=O)N/C(=C\c2ccc(-c3ccc(Br)cc3)o2)C(=O)NC2CCS(=O)(=O)C2)cc1 (stereo unspecified) | -36.1% | 25.9 µM [falling, single point] | 20.6 µM [falling, single point] |
| CSc1ncc(Cl)c(C(=O)Nc2sc3c(c2C(=O)NCc2ccco2)CCCC3)n1 | 4.31% | 9.2 µM [rising, partial curve] | – |
| COc1ccc(CNC(=O)COC(=O)C2CC2C)cc1OC (stereo unspecified) | 1.5% | 29.1 µM [falling, single point] | – |
| COC(=O)c1nnn(Cc2ccccc2)c1N | -13.4% | – | – |
| O=C(NCC(=O)N(c1ccc(F)cc1)C(C(=O)NC1CCCC1)c1cccnc1)c1cccs1 (stereo unspecified) | -36% | 11.6 µM [falling, partial curve] | 9.2 µM [falling, partial curve] |
| Cc1ccc(C)c(OCC(=O)Nc2ccccc2C(=O)N2CCOCC2)c1 | -41.8% | 11.6 µM [falling, partial curve] | 16.4 µM [falling, partial curve, poor fit] |
| c1ccc(OCCCc2nc(-c3cccnc3)no2)cc1 | 8.05% | 1.16 µM [rising, full curve] | – |
| CC(C)NC(=O)c1cnc(Sc2ncc(C(F)(F)F)cc2Cl)n1C | 3.7% | 2.31 µM [rising, full curve, poor fit] | – |
| CCOC(=O)c1c(-c2ccc(C)o2)csc1NC(=S)NC(=O)c1ccc(F)cc1 | 9.86% | 0.366 µM [rising, partial curve, poor fit] | – |
| CC(=O)c1ccc(O)c(CSc2nncn2C)c1 | 1.92% | 6.51 µM [rising, single point] | – |
| CCOc1cc(/C=N/Nc2cccc(C(=O)O)c2)ccc1OC(=O)c1ccccc1 | 17.5% | 1.46 µM [rising, partial curve, poor fit] | – |
| COc1ccc(/C=N/NC(=O)c2cc(C34CC5CC(CC(C5)C3)C4)[nH]n2)cc1OC | 10.8% | 1.3 µM [rising, partial curve, poor fit] | – |
| CN1/C(=C\C(=S)NC(=O)c2ccccc2Cl)C(C)(C)c2ccccc21 | -4.6% | 29.1 µM [falling, single point] | – |
| Cc1ccc(Nc2nc(-c3ccccc3)c(CC(=O)O)s2)cc1 | 14.3% | – | – |

Among those listed so far, 2 have an NH in an aromatic ring.

| Compound | cell number change | AC50 [1] | AC50 [2] |
| --- | --- | --- | --- |
| COc1ccc(S(=O)(=O)N2CCC(C(=O)NC(c3nc4ccccc4[nH]3)C(C)C)CC2)cc1 (stereo unspecified) | -29.8% | – | – |
| COc1ccc(/C=N/NC(=O)c2cc(C34CC5CC(CC(C5)C3)C4)[nH]n2)cc1OC | 10.8% | 1.3 µM [rising, partial curve, poor fit] | – |

Following part

| Compound | cell number change | AC50 [1] | AC50 [2] |
| --- | --- | --- | --- |
| COc1ccccc1-n1cnc2cc(NS(=O)(=O)c3ccc(Br)cc3)ccc21 | – | 29.1 µM [rising, partial curve] | 0.206 µM [rising, full curve, poor fit] |
| CCc1ccc(CNC(=O)C2CCCN(S(=O)(=O)N3CC(C)CC(C)C3)C2)cc1 (stereo unspecified) | 8.56% | 0.58 µM [rising, single point] | – |
| CC(C)Oc1ccc(CN2CCC(n3nccc3NC(=O)c3cccnc3)CC2)cc1 | 49.9% | – | 7.31 µM [rising, partial curve, poor fit] |
| Cc1ccc(NC(=O)COC(=O)c2ccccc2-c2nc3ccccc3s2)c(C)c1 | 15.3% | 4.11 µM [rising, partial curve, poor fit] | – |
| C=CCNC(=O)c1sc(=S)n(-c2ccc(C(=O)OCC)cc2)c1N | -0.729% | 29.1 µM [rising, single point] | – |
| COC(=O)c1sccc1-n1cccc1C(=O)NCc1ccccc1 | 16.1% | – | – |
| Cc1c(Cl)cccc1NC(=O)CCNC(=O)N1CC(=O)Nc2ccccc21 | -5.2% | – | – |
| COc1ccc(OC)c(-c2nnc(SCC(=O)N3CCOCC3)o2)c1 | 8.97% | 6.51 µM [rising, full curve, poor fit] | – |
| COc1ccccc1-n1nnnc1SCC(=O)Nc1cc(C)on1 | -10.2% | 3.26 µM [rising, single point] | – |
| O=c1c2ccccc2nc(-c2ccc(Cl)cc2Cl)n1O | -45.8% | 6.51 µM [falling, partial curve] | 6.51 µM [falling, partial curve, poor fit] |
| COC(=O)C1CCN(C(=O)COC(=O)c2cc(-c3ccccc3)nc3ccc(OC)cc23)CC1 | -19.8% | 0.092 µM [rising, partial curve, poor fit] | – |
| Cc1cc(CNC(=O)c2cc(-c3ccccc3)nc3ccccc23)nn1C | 3.38% | – | – |
| CC(C)(O)C#CC#CCN1CCOCC1 | 2% | 0.259 µM [falling, full curve, poor fit] | – |
| COc1cccc(C2(c3cccc(OC)c3)CC2C(=O)Nc2cccc3ccccc23)c1 (stereo unspecified) | -49.1% | 2.59 µM [falling, full curve] | 7.31 µM [falling, partial curve] |
| CC(C)C(NC(=O)C12CC3CC(CC(C3)C1)C2)C(=O)N/N=C/C1=C(N2CCOCC2)C(=C\c2ccc([N+](=O)[O-])cc2)/CC1 (stereo unspecified) | 7.14% | – | 3.66 µM [rising, single point] |
| C/C(=N/OCc1ccc(Br)cc1)c1ccccn1 | -21.1% | – | – |
| CCCNC(=O)C(Cc1ccc(OC)cc1)NC(=O)c1ccc(C#N)cc1 (stereo unspecified) | -3.05% | 0.164 µM [rising, partial curve] | – |
| O=C1N=c2ccccc2=C1c1sc(=S)n(NC(=O)c2ccccc2)c1O | -19.3% | – | 0.00517 µM [falling, full curve, poor fit] |
